The chains are these.
B1: nVenus-tagged full-length myosin VIII-1 (BiFC, transgenic Arabidopsis roots) (protein, UniProt Q9LHE9 1-1166)
chain: MSQKVTPFMQSLKSLPADYRFDGSPVSDRLENSSGASVRLTNSNVPRKGGLRNGVSRTDTAAGDSEDSPYSGHGVFVEEQSLTDDVDSGAATMPLPQSDERRWSDTSAYARKKILQSWIQLPNGNWELGKILSTSGEESVISLPEGKVIKVISETLVPANPDILDGVDDLMQLSYLNEPSVLYNLNYRYNQDMIYTKAGPVLVAVNPFKEVPLYGNRYIEAYRKKSNESPHVYAIADTAIREMIRDEVNQSIIISGESGAGKTETAKIAMQYLAALGGGSGIEYEILKTNPILEAFGNAKTLRNDNSSRFGKLIEIHFSESGKISGAQIQTFLLEKSRVVQCAEGERSYHIFYQLCAGASPALREKLNLTSAHEYKYLGQSNCYSINGVDDAERFHTVKEALDIVHVSKEDQESVFAMLAAVLWLGNVSFTVIDNENHVEPVADESLSTVAKLIGCNINELTLTLSKRNMRVRNDTIVQKLTLPQAIDARDALAKSIYSCLFDWLVEQINKSLAVGKRRTGRSISILDIYGFESFDKNSFEQFCINYANERLQQHFNRHLFKLEQEEYIQDGIDWTRVDFEDNQNCLSLFEKKPLGLLSLLDEESTFPNGTDLTLANKLKQHLQSNSCFRGDKGKLFTVVHYAGEVTYETTGFLEKNRDLLHSDSIQLLSSCSCLLPQAFASSMLIQSEKPVVGPLYKAGGADSQRLSVATKFKSQLFQLMQRLGNTTPHFIRCIKPNNIQSPGVYEQGLVLQQLRCCGVLEVVRISRSGFPTRMSHQKFSRRYGFLLVENIADRDPLSVSVAILHQFNILPEMYQVGYTKLFFRTGQIGVLEDTRNRTLHGILRVQSSFRGYQARCLLKELKRGISILQSFVRGEKIRKEFAELRRRHKAAATIQSQVKSKIARIQYKGIADASVVIQSAIRGWLVRRCSGDIGWLKSGGAKTNELGEVLVKASVLSELQRRVLKAEAALREKEEENDILQQRLQQYENRWSEYETKMKSMEEIWQKQMRSLQSSLSIAKKSLAVEDSARNSDASVNASDATDWDSSSNQFRSQTSNGVGSRLQPMSAGLSVIGRLAEEFEQRAQVFGDDAKFLVEVKSGQVEANLDPDRELRRLKQMFETWKKDYGGRLRETKLILSKLGSEESSGSMEKVKRKWWGRRNSTRY
B2: myc-tagged VIP1 (transgenic Arabidopsis roots) (protein, UniProt Q9MA75 1-341)
chain: MEGGGRGPNQTILSEIEHMPEAPRQRISHHRRARSETFFSGESIDDLLLFDPSDIDFSSLDFLNAPPPPQQSQQQPQASPMSVDSEETSSNGVVPPNSLPPKPEARFGRHVRSFSVDSDFFDDLGVTEEKFIATSSGEKKKGNHHHSRSNSMDGEMSSASFNIESILASVSGKDSGKKNMGMGGDRLAELALLDPKRAKRILANRQSAARSKERKIRYTGELERKVQTLQNEATTLSAQVTMLQRGTSELNTENKHLKMRLQALEQQAELRDALNEALRDELNRLKVVAGEIPQGNGNSYNRAQFSSQQSAMNQFGNKTNQQMSTNGQPSLPSYMDFTKRG
B3: myc-tagged myosin VIII-B cargo binding domain (E. coli) (domain or fragment, UniProt F4JIU4 954-1134)
chain: ADLQSRVLKVEAAIMQKEDENTALQEELQRFEERWLENETRMKSMEDTWQKHMSSMQMSLAAACKVLAPDKTASHGTDSEDTMSFGTPTKELKGSLSDVNNLSTEFDQRSVIIHEDPKSLVEVKSDSISNRKQHAEELRRLKSRFEKWKKDYKTRLRETKARVRLNGDEGRHRNWWCKKSY
B4: myc-tagged myosin VIII-A cargo binding domain (E. coli) (domain or fragment, UniProt F4I507 948-1153)
chain: YLSDLQRRVLRTEAALREKEEENDILRQRVQQYDNRWSEYETKMKSMEEIWQKQMKSLQSSLSIAKKSLEVEDSARNSDASVNASDATDLDSGGSHYQMGHGRSRSVGVGLSVISRLAEEFGQRAQVFGDDRKFLMEVKSGQVEANLNPDRELRRLKQMFETWKKDYGGRLRETKLILSKLGSEETGGSAEKVKMNWWGRLRSTRY
B5: myc-tagged myosin VIII-2 cargo binding domain (E. coli) (domain or fragment, UniProt F4K0A6 1003-1220)
chain: SMSDLQKRILKSEAALSQKEEENTALREQLRQFEERWSEYDIKMKSMEETWQKQMSSLQMSLAAARKSLAAESITGQAGGRQDTSISPFGYDSEDTMSTGTPGVRTPTNKFTNGNTPELRIRELNGSLNAVNHLAREFDQRRLNFDEDARAIVEVKLGPQATPNGQQQQHPEDEFRRLKLRFETWKKDYKARLRDTKARLHRVDGDKGRHRKWWGKRG
B6: myc-tagged VIP1 (E. coli) (protein, UniProt Q9MA75 1-341)
chain: B2 chain

Chains of the proteins cited; added tags and fusions are not shown. Residues count along the entry.
UniProt P0A3W8: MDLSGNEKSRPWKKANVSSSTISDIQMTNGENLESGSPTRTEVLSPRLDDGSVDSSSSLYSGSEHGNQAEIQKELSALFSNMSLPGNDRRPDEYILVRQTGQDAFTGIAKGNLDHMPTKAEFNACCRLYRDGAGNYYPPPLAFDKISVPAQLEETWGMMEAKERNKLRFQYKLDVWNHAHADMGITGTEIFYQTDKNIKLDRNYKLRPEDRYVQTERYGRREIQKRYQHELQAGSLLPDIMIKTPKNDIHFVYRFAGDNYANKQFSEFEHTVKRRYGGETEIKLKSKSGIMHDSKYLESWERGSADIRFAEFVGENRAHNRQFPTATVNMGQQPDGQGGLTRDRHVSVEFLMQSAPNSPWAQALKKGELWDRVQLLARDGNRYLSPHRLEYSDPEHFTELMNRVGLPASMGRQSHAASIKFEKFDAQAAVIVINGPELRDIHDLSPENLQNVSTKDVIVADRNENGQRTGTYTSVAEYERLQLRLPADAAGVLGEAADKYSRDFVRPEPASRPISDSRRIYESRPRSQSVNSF
UniProt F4K5J1, residues 808-1531: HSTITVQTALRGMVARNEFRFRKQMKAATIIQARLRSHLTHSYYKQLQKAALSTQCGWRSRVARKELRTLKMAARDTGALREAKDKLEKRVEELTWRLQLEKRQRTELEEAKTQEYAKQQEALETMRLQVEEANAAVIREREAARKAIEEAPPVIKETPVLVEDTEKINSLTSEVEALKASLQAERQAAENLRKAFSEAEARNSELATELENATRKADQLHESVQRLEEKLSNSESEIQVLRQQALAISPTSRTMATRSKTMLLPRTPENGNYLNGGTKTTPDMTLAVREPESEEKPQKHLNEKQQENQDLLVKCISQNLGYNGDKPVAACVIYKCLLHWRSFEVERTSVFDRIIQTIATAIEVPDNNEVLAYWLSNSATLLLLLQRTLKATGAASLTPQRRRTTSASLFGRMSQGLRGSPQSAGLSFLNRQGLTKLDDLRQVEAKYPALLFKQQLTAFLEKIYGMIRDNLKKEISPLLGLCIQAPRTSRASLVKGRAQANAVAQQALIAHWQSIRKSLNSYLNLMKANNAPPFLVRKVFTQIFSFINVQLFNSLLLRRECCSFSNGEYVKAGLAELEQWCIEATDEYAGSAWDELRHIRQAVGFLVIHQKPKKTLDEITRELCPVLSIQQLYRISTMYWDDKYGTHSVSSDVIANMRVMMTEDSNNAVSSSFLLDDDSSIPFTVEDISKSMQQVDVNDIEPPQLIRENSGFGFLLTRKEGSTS

The text below walks through data of paper doi:10.1101/2023.03.06.531343.

These are yes or no findings as the source states them, for the method shown. In cells and extracts the contact can be indirect. Some results given as binding are weak or reduced against the parent protein; the word gives no strength. Sequences can lack the tags named with a protein.

For the first assay, the target named is VirE2-cEYFP (BiFC, transgenic Arabidopsis roots) (Agrobacterium tumefaciens) (UniProt P0A3W8). Kind of assay: split reporter.
As for “nVenus-tagged full-length myosin VIII-2 (BiFC, transgenic Arabidopsis roots) (from UniProt F4K0A6 1-1220)”, the binding entry is listed as “binds”.

For “nVenus-tagged full-length myosin VIII-A (BiFC, transgenic Arabidopsis roots) (from UniProt F4I507 1-1153)”, the binding entry is on record as “binds”.

“nVenus-tagged full-length myosin VIII-B (BiFC, transgenic Arabidopsis roots) (from UniProt F4JIU4 1-1134)”: the binding result is “binds”.

For the molecule B1, the binding result was “no binding”.

The target of another assay is VirE2-Venus (expressed in transgenic Arabidopsis roots) (Agrobacterium tumefaciens) (UniProt P0A3W8). The experiment in a line: co-IP.
Turning to B2, the binding result is given as “binds”.

The target in the next assay is VirE2-Venus (recombinant, E. coli) (Agrobacterium tumefaciens) (UniProt P0A3W8). The experiment in a line: pull-down.
“myc-tagged myosin VIII-1 cargo binding domain (E. coli) (from UniProt Q9LHE9 953-1166) (domain or fragment)”: the binding entry is on record as “no binding”.

Turning to “myc-tagged myosin XI-K cargo binding domain (E. coli) (from UniProt F4K5J1 808-1531) (domain or fragment)”, the binding result was “binds”.

Regarding B3, the binding result is listed as “binds”.

Take B4: the binding result is “binds”.

With B5, the binding result was “binds”.

In the case of B6, the binding entry is given as “binds”.
